Laboratory results published in PubChem BioAssay (NCATS).
The list shows a part of the results. The main result of the screen is listed elsewhere. These columns were measured beside it and carry no call. The list favours compounds with an active or inconclusive main result. The note in brackets gives the kind of curve behind each potency; many fits are weak.

Test: qHTS for identification of novel therapeutic agents for treatment of microphthalmiaassociated transcription factor (MiT) renal cell carcinoma (RCC) (AID 1963991)
Conditions: CellTiter-Glo, 48 h; for z-score: stronger effect = lower value
In short: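 Three TFE3-fusion RCC lines (UOK109, UOK124, UOK145), 500 cells/well in complete medium, were treated with MIPE 4.0 compounds for 48 hours at 37 C. Viability was by CellTiter-Glo luminescence, normalized to DMSO (100%) and empty wells (0%); curves fitted over 11 concentrations.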

[1] = TFE3-RCC UOK109 viability, measured here: UOK109 Z-AUC
[2] = TFE3-RCC viability, measured here: UOK124 Z-AUC
[3] = TFE3-RCC viability, measured here: UOK124 cell viability
[4] = TFE3-RCC viability, measured here: UOK145 Z-AUC
[5] = TFE3-RCC viability, measured here: UOK145 cell viability

Row | SMILES | z-score [1] | z-score [2] | AC50 [3] | z-score [4] | AC50 [5]
1 | Nc1nc2c(ncn2COC(CO)CO)c(=O)[nH]1 | -0.201 | -1.19 | 18.7 µM [falling, partial curve, poor fit] | -0.938 | 9.35 µM [falling, partial curve]
2 | N#CC(=C1Nc2ccccc2S1)c1ccnc(OCc2ccc(CN3CCOCC3)cc2)n1 | -2.51 | 0.377 | 8.33 µM [falling, full curve] | -0.744 | 13.2 µM [falling, partial curve]
3 | Cn1c(=O)c(Oc2ccc(F)cc2F)cc2cnc(NC3CCOCC3)nc21 | 0.275 | -0.0598 | 10.5 µM [falling, partial curve, poor fit] | 0.319 | 23.5 µM [falling, partial curve, poor fit]
4 | COc1cc2nc(-c3cc(F)ccc3O)nc(N[C@@H]3CNC[C@@H]3C(C)(C)O)c2cc1OC | -0.872 | -0.644 | 13.2 µM [falling, partial curve] | 0.162 | 20.9 µM [falling, partial curve]
5 | CC(C)C(=O)Oc1ccc(CO)cc1[C@H](CCN(C(C)C)C(C)C)c1ccccc1 | 0.0109 | 0.147 | 14.8 µM [falling, partial curve, poor fit] | -0.231 | 20.9 µM [falling, partial curve, poor fit]
6 | COc1nccc(-c2c(-c3ccc(F)cc3)ncn2C2CCNCC2)n1 | -0.0714 | 0.243 | 4.69 µM [falling, partial curve, poor fit] | -0.0923 | 16.6 µM [falling, partial curve]
